Assay results as given in patent publication US8609332B2, “Assay” (Queen's University of Belfast, priority 2006, dated 2013).
Entries after “also recorded” stand apart in the source; their conditions may differ. At least one structure is not confirmed: it was looked up by name or label, or the drawing left a doubt.

How the values were obtained:
[1] = system: R37 and derivative cell lines; experiment: Invasion through Matrigel (Boyden chamber); type: cell-based, rat; conditions: R37-RAN cells treated with LY 294002
[2] = system: ser473 phosphorylated Akt; experiment: AKT phosphorylation immunoblot; type: cell-based, rat; conditions: R37-RAN and R37-OPN cells, 50 μM LY294002
Protocol: FIG. 5C Immunodetection and LY290042-inhibition of phosphorylated Akt in parental R37, R37-CMV, R37-OPN and R37-RAN cells. 20 μg cell lysates were loaded onto a SDS 10% (W(W) polyacrylamide gel as follows: lane 1 R37, lane 2 R37-pBk-CMV; lane 3 R37-RAN, lane 4 R37-OPN; lane 5 R37-OPN treated with 50 μm LY290042 for 18 hr (R37-OPN/LY); and lane 6 R37-RAN treated with 50 μm LY290042 for 18 hr (R37-RAN/LY). Proteins were detected in immunoblots using specific antibodies to phosphoserine 473 AkT. Bands were quantified using densitometric analysis and quantified with respect to those of β-actin. The results were a representative sample of three experiments. The average fold increase for 3 different experiments for phosphorylated AkT on ser473 is: lane 1=1, lane 2=2.2±0.4, lane 3=22.5±0.7, lane 4=21.1±0.5, lane 5=0±0 and lane 6=0±0.
The R37, R37-CMV, R37-RAN and R37-OPN cells were harvested at 80% confluence from 7 cm dishes. The cell were lysed in 300 μl of 2× Loading buffer (20% glycerol (v/v), 4% SDS (w/v), 10% 2-mercaptoethanol (v/v), 126 mM Tris, pH 6.8 and coloured with bromophenol blue). The lysates were sonicated, boiled at 100° C. for 5 minutes and then centrifuged at 15000 rpm for 10 minutes. Proteins were resolved by 7.5% SDS-PAGE and immunoblofted for ser473 phosphorylated Akt.as previously (43).

PI3K = conditions: at 50 μM / the concentrations used; cited from earlier work

Structure (SMILES): O=c1cc(N2CCOCC2)oc2c(-c3ccccc3)cccc12 [LY294002, 2-4(4-morpholinyl)-8-phenyl-4H-1-benzopyran-4-one]
- effect on RAN mediated cell invasion [1]: reduced cell invasion; also recorded: inhibitor of RAN mediated invasion
- effect on detectable levels of phosphorylated Akt (words) [2]: completely abolished
- effect on detectable levels of phosphorylated Akt (words) ([2]; listed as LY 294002): completely abolished; also recorded: inhibits
- specificity for PI3K (PI3K): specific for PI3K; also recorded: specific for inhibition of P13K
